PubChem BioAssay AID1159579 | Peter MacCallum Cancer Centre, 2015
Purpose: 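Find genes whose silencing alters migration of lymphatic endothelial cells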 (follow-up of hits). Cell system: human dermal lymphatic endothelial cells. Reagent: single siRNA against human genes, 25 nM. Measurement: 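High content images of wound closure area and cell nuclei counts, each the average of two wells, expressed against mock transfection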. Scale: migration relative to mock: higher = more migration into the scratch; mean nuclei count: higher = more cells remaining. Call rule: 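a ratio of at most 0.6 or at least 1.3 marks altered migration and an active call; a mean nuclei count under 3300 forces an inactive call regardless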. Meaning of the calls: active = migration changed (impaired or accelerated); inactive = no migration change, or too few cells.
The deposit covers about 2,000 reagents; this is an unselected part. Of all reagents, 549 (27%) are marked active. 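Some migration ratios are negative; siRNAs with too few cells are inactive whatever their migration ratio.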 A number with no mark means an inactive call. The numbers tell different reagents against one gene apart. Further read-outs or replicates are left out here. Not given: the time to read-out.

no.	Target gene	reagent	migration relative to mock	mean nuclei count
1	LILRB2 (GeneID 10288)	1	1.14	6918
2	LILRB2 (GeneID 10288)	2	0.86	4780
3	LILRB2 (GeneID 10288)	3	0.64	5804
4	LILRB2 (GeneID 10288)	4	0.97	6912
5	SRSF1 (GeneID 6426)	1	-1.3	1180
6	SRSF1 (GeneID 6426)	2	1.28	5313
7	SRSF1 (GeneID 6426)	3	0.79	5078
8	SRSF1 (GeneID 6426)	4	1.04	5506
9	SYNGAP1 (GeneID 8831)	1	0.53 (active)	5380
10	SYNGAP1 (GeneID 8831)	2	0.89	7894
11	SYNGAP1 (GeneID 8831)	3	-0.18 (active)	3888
12	SYNGAP1 (GeneID 8831)	4	0.97	6522
13	ZNF672 (GeneID 79894)	1	0.74	5925
14	ZNF672 (GeneID 79894)	2	1.02	6314
15	ZNF672 (GeneID 79894)	3	-0.48	2697
16	ZNF672 (GeneID 79894)	4	-0.02 (active)	3646
17	SLC25A34 (GeneID 284723)	1	1.23	5830
18	SLC25A34 (GeneID 284723)	2	0.92	5731
19	SLC25A34 (GeneID 284723)	3	0.74	4806
20	SLC25A34 (GeneID 284723)	4	0.92	5412
21	JUN (GeneID 3725)	1	0.76	6274
22	JUN (GeneID 3725)	2	0.98	6306
23	JUN (GeneID 3725)	3	0.06 (active)	3632
24	JUN (GeneID 3725)	4	0.58 (active)	7258
25	LZTS3 (GeneID 9762)	1	0.15 (active)	4144
26	LZTS3 (GeneID 9762)	2	1.08	6234
27	LZTS3 (GeneID 9762)	3	0.99	6633
28	LZTS3 (GeneID 9762)	4	1.02	5689
29	WDFY2 (GeneID 115825)	1	0.97	6488
30	WDFY2 (GeneID 115825)	2	0.42 (active)	5116
31	WDFY2 (GeneID 115825)	3	1.04	5607
32	WDFY2 (GeneID 115825)	4	0.68	4074
33	MTPN (GeneID 136319)	1	0.56 (active)	4688
34	MTPN (GeneID 136319)	2	0.9	6366
35	MTPN (GeneID 136319)	3	0.51 (active)	3772
36	MTPN (GeneID 136319)	4	0.48 (active)	6857
37	EPB41L3 (GeneID 23136)	1	0.77	6761
38	EPB41L3 (GeneID 23136)	2	0.88	5990
39	EPB41L3 (GeneID 23136)	3	0.97	6241
40	EPB41L3 (GeneID 23136)	4	1.02	6282
41	SLC2A10 (GeneID 81031)	1	1.18	5621
42	SLC2A10 (GeneID 81031)	2	1.05	7420
43	SLC2A10 (GeneID 81031)	3	0.86	5318
44	SLC2A10 (GeneID 81031)	4	0.5 (active)	4758
45	AOC3 (GeneID 8639)	1	0.28 (active)	4179
46	AOC3 (GeneID 8639)	2	1.06	6255
47	AOC3 (GeneID 8639)	3	0.44 (active)	6573
48	AOC3 (GeneID 8639)	4	0.99	5867
